Experimental data: PubChem BioAssay AID1259308 (NCATS, 2017)
The deposit covers about 59,000 reagents; this is a part drawn at random. In the full data, about 1,510 (2.6%) were called active. 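Calls use total luciferase alone and ignore viability, so some active siRNAs may act by altering cell number.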 Unmarked entries are inactive. Reagents against one gene are numbered here. Further read-outs or replicates are left out here.

- Purpose: 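Genes whose loss raises luciferase production in HEK293 cells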 (primary screen)
- System: human HEK293 embryonic kidney cells stably expressing firefly luciferase (HEK-CMV-Luc2-Hygro)
- Reagent: single siRNA against human genes, 0.8 pmol siRNA per well
- Time to read-out: 72 h
- Detection: 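Reporter luminescence and viable-cell signal on separate replicate plates, given as percent of non-targeting control and median/MAD z-scores, plus per-cell luciferase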
- Direction: total luciferase, z-score: higher = more reporter protein produced
- Call rule: 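An siRNA counts as active if its total luciferase robust z-score exceeds 3; genes with two or more such siRNAs out of three were retested with fresh siRNAs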
- Meaning of the calls: active = raised luciferase; inactive = no rise

total luciferase, z-score, by gene and reagent
KIF2B (kinesin family member 2B): #1 -1.07; #2 2.39; #3 -1.59
RHCG (Rh family C glycoprotein): #1 -0.435; #2 2.36; #3 -0.547
KCNN2 (potassium calcium-activated channel subfamily N member 2): #1 2.96; #2 -0.057; #3 0.511
NFRKB (nuclear factor related to kappaB binding protein): #1 1.78; #2 -0.0692; #3 0.307
KCP (kielin cysteine rich BMP regulator): #1 3.28 (active); #2 -0.687; #3 -0.54
ATF3 (activating transcription factor 3): #1 -0.22; #2 -0.66; #3 1.18
ARMCX2 (armadillo repeat containing X-linked 2): #1 -0.604; #2 -0.169; #3 -0.46
APOBEC3H (apolipoprotein B mRNA editing enzyme catalytic subunit 3H): #1 3.54 (active); #2 3.57 (active); #3 0.355
BCL3 (BCL3 transcription coactivator): #1 -0.642; #2 -0.86; #3 -1.31
EBPL (EBP like): #1 0.673; #2 0.675; #3 1.25
STXBP6 (syntaxin binding protein 6): #1 -0.024; #2 1.47; #3 1.86
TMSB15B (thymosin beta 15B): #1 -0.29; #2 1.51; #3 2
RPSAP12 (ribosomal protein SA pseudogene 12): #1 -3.04; #2 -2.45; #3 0.842
CBX7 (chromobox 7): #1 -0.305; #2 -1.27; #3 0.458
WDR91 (WD repeat domain 91): #1 0.581; #2 0.56; #3 0.0576
NINL (ninein like): #1 0.124; #2 0.0456; #3 1.38
NUP62 (nucleoporin 62): #1 -1.28; #2 -3.63; #3 -2.66
PDHA1 (pyruvate dehydrogenase E1 subunit alpha 1): #1 -0.738; #2 1.63; #3 0.304
JMJD7-PLA2G4B (JMJD7-PLA2G4B readthrough): #1 5.7 (active); #2 -0.594; #3 1.04
ANKRD2 (ankyrin repeat domain 2): #1 -0.241; #2 0.451; #3 1.43
HECW1: #1 -0.339; #2 -0.134; #3 -0.573
CACYBP (calcyclin binding protein): #1 0.0524; #2 -1.18; #3 0.103
DCAF4L2 (DDB1 and CUL4 associated factor 4 like 2): #1 0.374; #2 1.97; #3 -0.401
PDXP (pyridoxal phosphatase): #1 4.14 (active); #2 0.686; #3 -1.22
AMD1 (adenosylmethionine decarboxylase 1): #1 -0.284; #2 -1.31; #3 -1.91

Copied from the list:
Value of NUP62 (nucleoporin 62) #3 under “total luciferase, z-score”: -2.66
For “total luciferase, z-score”, PDHA1 (pyruvate dehydrogenase E1 subunit alpha 1) #2 has 1.63
Value of ARMCX2 (armadillo repeat containing X-linked 2) #2 under “total luciferase, z-score”: -0.169
Value of PDXP (pyridoxal phosphatase) #2 in “total luciferase, z-score”: 0.686
For “total luciferase, z-score”, NUP62 (nucleoporin 62) #2 is entered as -3.63
PDHA1 (pyruvate dehydrogenase E1 subunit alpha 1) #1, total luciferase, z-score = -0.738
